From ChEMBL document CHEMBL3988442, “University of Dundee, Small-Polar-MMV Screening Library” (2021).

Each number is a percent effect as filed.
How 0% and 100% were set is not recorded. Most values in the screen are low, and negative values occur.
This is an unselected part of the compounds tested.

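Whole-parasite assay of Trypanosoma brucei over 72 hours; the read-out is not stated. Concentration: 30 µM. Direction is inferred from retests: higher values go with stronger inhibition. Values scatter widely below zero; nearly all retest evidence comes from the higher of the two concentrations used. Size under these conditions: about 64,000 compounds, about 940 of them at 50% or above in at least one test.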

| # | Compound | Percent Effect |
|---|---|---|
| 1 | `CCN1CCN(CC(=O)N2CCOC(Cc3ccc(OC)cc3)C2)CC1` (configuration not stated) | -94% |
| 2 | `CC(=O)N1CC(=O)N(c2ccccc2)CC12CCN(Cc1ccoc1)C2.O=C(O)C(F)(F)F` (configuration not stated) | -38.45% |
| 3 | `CS(=O)(=O)N1CCc2[nH]cnc2C12CCN(C(=O)c1cccnc1)CC2` | -30.04% |
| 4 | `CCc1cnc(C)nc1NC1CC(=O)N(CC2CCCCC2)C1` (configuration not stated) | 11.36% |
| 5 | `COc1ccc(F)cc1S(=O)(=O)NCC(c1cccn1C)N(C)C` (configuration not stated) | -71.49% |
| 6 | `CN1CCN(C2CCN(Cc3noc(C(C)(C)C)n3)CC2)C1=O` | -57.48% |
| 7 | `CC(C)c1nn(C)c(N(C)C)c1CNCc1cccnc1` | -8.14% |
| 8 | `CN(Cc1ccc(C#N)cc1)C(=O)c1ccnc(OC2CCC2)c1` | -72.67% |
| 9 | `Cn1cnc(S(=O)(=O)N2CCCC2)c1Cl` | -19.11% |
| 10 | `CCCc1nc(C)cc(N2CCNC(C(=O)NCc3cccnc3)C2)n1` (configuration not stated) | -25.73% |
| 11 | `COc1ccnc(N2CCN(C(=O)c3csc(C4CC4)n3)CC2)n1` | -19.38% |
| 12 | `O=C(Nc1ccc(N2CCCCC2)cn1)C1CCCN1C(=O)C1CC1` (configuration not stated) | 3.464% |
| 13 | `CS(=O)(=O)NCc1cc(=O)n2c(n1)CN(Cc1ccco1)CCC2.O=C(O)C(F)(F)F` | -18.28% |
| 14 | `CC(NC(=O)NCCCc1n[nH]c(N)c1C#N)c1ccccc1` (configuration not stated) | 12.34% |
| 15 | `Cc1c(F)cccc1S(=O)(=O)NC(C)(C)CN.Cl` | -19.62% |
| 16 | `Cc1cccc(N2CCC3(CCN(C(=O)c4cccnc4)CC3)C2)n1.O=C(O)C(F)(F)F.O=C(O)C(F)(F)F` | 38.81% |
| 17 | `Cc1cccc(-c2noc(CN3CCC(N4CCNC4=O)CC3)n2)c1` | 12.81% |
| 18 | `O=C(c1cnccn1)N1CC(S(=O)(=O)c2ccc(Cl)cc2)C1` | -30.14% |
| 19 | `CNc1oc(COc2ccc3c(c2)OCO3)nc1C#N` | -11.41% |
| 20 | `c1ccc(C2CN(C3CC3)CC3(CCN(Cc4cscn4)CC3)C2)cc1` (configuration not stated) | 17.49% |
| 21 | `COC(=O)CCC(=O)NC(C)Cc1ccccc1Br` (configuration not stated) | -5.813% |
| 22 | `Cc1cc(CN(C)C(=O)C(c2ccccc2C)N(C)C)on1` (configuration not stated) | 10.88% |
| 23 | `CNC(=O)NC(=O)CN1CCN(c2ccc(C(=O)OC)cc2)CC1C` (configuration not stated) | -18.31% |
| 24 | `NC(=O)C(Nc1ccc(Cl)cc1)c1ccc(F)cc1` (configuration not stated) | -4.188% |
| 25 | `[H][C@@]12CS(=O)(=O)C[C@]1([H])N(Cc1nc3ccccc3[nH]1)CCN2CC(C)C` | -47.45% |
| 26 | `Cc1cc(C(=O)NCC2CCCO2)c(C)n1-c1cccnc1` (configuration not stated) | -4.659% |
| 27 | `Cn1ccc2c(C(=O)N3CCCC(c4nnc[nH]4)C3)cccc21` (configuration not stated) | -17.54% |
| 28 | `COc1cccc(CN(C)C(=O)CSc2ccc3c(c2)OCCO3)c1` | 16.31% |
| 29 | `Cc1nc2c(c(NCC3Cc4ccccc4CN3C)n1)CCNCC2` (configuration not stated) | 15.13% |
| 30 | `Cc1nc(C)n(CC2CCCN2Cc2cccc3c2OCCO3)n1` (configuration not stated) | 20.03% |
| 31 | `COCCN1CCCC2(CCN(c3cccc(C(F)(F)F)n3)C2)C1=O` (configuration not stated) | -15.61% |
| 32 | `CC1COCCN1Cc1nc(-c2cccc(C(F)(F)F)c2)no1` (configuration not stated) | -6.029% |
| 33 | `CC(C)(C)c1ncc(C(=O)NCc2cccc(C(=O)N3CCCC3)c2)s1` | -2.25% |
| 34 | `CCCc1cc(C(=O)N(Cc2cccnc2)C[C@@H]2CCC(=O)N2)no1` | -14.85% |
| 35 | `CC(=O)N1CCNCC1c1cccc(C(=O)N(C)C)c1` (configuration not stated) | 5.491% |
| 36 | `CC1=NN(c2ccc(C(=O)OCCNC(=O)c3ccncc3)cc2)CC1` | 14.74% |
| 37 | `Cc1nc(C2CCN(C(=O)CO)CC2)cc(N2CCOCC2)n1` | 33.01% |
| 38 | `C[C@@H]1CN(S(=O)(=O)N2CCCCCC2)C[C@@]1(O)C1CCC1` | -72.11% |
| 39 | `CN(C)c1ncnc2c1CCN(C(=O)CN1CCCCC1)C2` | -7.984% |
| 40 | `CC1CN(C)CCN1C(=O)Nc1nc(-c2ccc[nH]2)cs1` (configuration not stated) | -8.867% |
| 41 | `O=c1[nH]c(COc2cccc(F)c2)nc2c1CCNC2` | -6.052% |
| 42 | `COc1ccc(-c2cc(C[C@@H]3C[C@H](N(C)C)C3(C)C)no2)cc1` | 9.398% |
| 43 | `CC(CCNC(=O)NCCc1ccc(S(N)(=O)=O)cc1)c1ccccc1` (configuration not stated) | -10.71% |
| 44 | `CCOCC(=O)N1CCc2c(CN(C)C)nn(C(C)C)c2C1.O=C(O)C(F)(F)F` | -51.45% |
| 45 | `COc1ccc(-n2c(SCC(=O)O)nnc2-c2cn[nH]c2)cc1` | -33.03% |
| 46 | `Cn1cc(-c2ncc(C(=O)NCCCn3ccccc3=O)s2)cn1` | 73.43% |
| 47 | `Cc1c(CS(C)(=O)=O)cccc1NC(=O)CC1CCCC1` | -6.888% |
| 48 | `CCC(=O)N1CCCC1c1nccnc1Nc1nc(C)cc(C)n1` (configuration not stated) | -2.888% |
| 49 | `CCCc1nnc(NC(=O)NC(CCO)c2cccs2)s1` (configuration not stated) | -5.539% |
| 50 | `Cc1ccnc(NC(=O)C2CCN(CCCn3ccnc3)CC2)c1` | -9.272% |
| 51 | `CN(CCc1ccncc1)C(=O)c1sccc1OC(F)F` | -5.324% |
| 52 | `COc1c(NS(=O)(=O)c2cc(C)ccc2C)c(C)nn1C` | 15.46% |
| 53 | `Clc1cccc(-n2cnnn2)c1N1CCCCC1` | -12.68% |
| 54 | `COc1ccc(C2CNCCN2C(=O)c2cccc3ncccc23)cc1` (configuration not stated) | -8.292% |
| 55 | `O=C(NCCNc1ncccn1)N1CCCC1c1ccc(F)cc1` (configuration not stated) | -19.4% |
| 56 | `CC(C)c1nc(C2CCCN(C(=O)CN3CCN(C)CC3)C2)no1` (configuration not stated) | -38.19% |
| 57 | `Cc1nn(C)cc1-c1cc(C(F)(F)F)nn1CCC#N` | -13.3% |
| 58 | `Cc1nc(CN2CCN(C3CCOC3)Cc3cccnc32)cs1.O=C(O)C(F)(F)F.O=C(O)C(F)(F)F.O=C(O)C(F)(F)F` (configuration not stated) | -61.51% |
| 59 | `O=C(O)C(F)(F)F.[H][C@]12CCN(c3ncc(F)cn3)[C@@]1([H])CC[C@H](COCc1cccnc1)O2` | -11.28% |
| 60 | `CCn1c(C2CCCNC2)nn(Cc2ccc(C(=O)NC)o2)c1=O` (configuration not stated) | 6.485% |
| 61 | `CNC(=O)c1cc2c(nc1NCC(C)C)CCN(c1ccncn1)CC2.O=C(O)C(F)(F)F` | -20.72% |
| 62 | `COc1cccc(C(=O)N2CCC(Nc3ccc(C)nn3)CC2)c1` | -15.16% |
| 63 | `COc1ccc(-c2nc(CCNC(=O)NC3CCC(O)CC3)co2)cc1` (configuration not stated) | -54.4% |
| 64 | `CCOc1ccc(Cl)cc1C(C(=O)O)N1CCCC1` (configuration not stated) | -3.918% |
| 65 | `CCC(CC)S(=O)(=O)NC(=O)c1ccc2c(c1)ncn2C` | 9.116% |
| 66 | `Cc1noc(C)c1CN(C)C(=O)CCn1c(=O)n(C)c2ccccc21` | -16.48% |
| 67 | `Cc1nn(CCCNC(=O)C2CCN(S(C)(=O)=O)CC2)c(Cl)c1Cl` | -8.758% |
| 68 | `CSCC(=O)N1CCCN(c2ccncc2C)CC1` | -37.52% |
| 69 | `Cn1cc(CNc2ccc(CCN3CCC(C(N)=O)CC3)cc2)cn1` | -6.438% |
| 70 | `CCc1nc(CC(=O)NCC2(C(N)=O)CCOCC2)cs1` | 2.742% |
| 71 | `Cc1[nH]ncc1CCCNC(=O)N1CCC(CC(N)=O)CC1` | -61.63% |
| 72 | `Cl.Cl.OC(CN1CCN(Cc2cccc(F)c2)CC1)C1CC1` (configuration not stated) | 12.27% |
| 73 | `COc1ccc2c3c1CN(S(C)(=O)=O)CC3=CC(C)(C)CO2` | -12.9% |
| 74 | `CN(Cc1ccsc1)C(=O)c1ccc(C2CCCO2)s1` (configuration not stated) | -15.13% |
| 75 | `Cc1cc(C2CCCN2C(=O)CN(C)Cc2ccccc2)no1` (configuration not stated) | -37.24% |
| 76 | `COC(=O)CNC(=O)C1CCN(S(C)(=O)=O)CC1` | 0.1534% |
| 77 | `Cn1cc(C2CCCN2C(=O)Cn2ccc3ccccc32)cn1` (configuration not stated) | -47.82% |
| 78 | `COc1ccc(CNC(=O)Cn2ccc3sccc3c2=O)cc1` | -25.7% |
| 79 | `Cn1ccnc1-c1nc(N2CCCCC2)ncc1-c1ccccc1F` | -6.458% |
| 80 | `Cn1nnnc1SCC1(O)CCCCC1` | -66.85% |
| 81 | `CC(C)c1cc(C2CCCN2C(=O)c2cn3ccsc3n2)no1` (configuration not stated) | 13.49% |
| 82 | `CCc1ccccc1OCC(=O)Nc1ccnc(OCCN(C)C)c1` | -55.57% |
| 83 | `CC[C@H](C)[C@@H](CO)NC(C)Cc1ccc(C)cc1` (some centres not stated) | -8.897% |
| 84 | `CCOC(=O)c1ccc(CNC(=O)c2ccc(Cl)cn2)o1` | 10.55% |
| 85 | `N#Cc1cccc(NC2CC(=O)N(CCCc3ccccc3)C2)n1` (configuration not stated) | -17.2% |
| 86 | `CNc1nccc(C2CCCCN2Cc2cnn3cccnc23)n1` (configuration not stated) | -0.9281% |
| 87 | `COc1cccc(-c2nc(CNCCCn3cccn3)cs2)c1` | -17.08% |
| 88 | `NC(=O)c1cc(C2CCCN(C(=O)CCc3ccsc3)C2)n[nH]1` (configuration not stated) | -18.04% |
| 89 | `Cc1cccc(CN2CCC(Cc3ccccc3F)CC2)n1` | -43.26% |
| 90 | `CN1CCN([C@@H]2CCN(C3CCOC3)[C@H]2Cc2cnn(C)c2)CC1.O=C(O)C(F)(F)F.O=C(O)C(F)(F)F.O=C(O)C(F)(F)F` (some centres not stated) | -4.454% |
| 91 | `CCOCCC(=O)NCC1COc2c(cccc2OC)C1` (configuration not stated) | -82.33% |

For reference, 9 entries once more:

Cc1c(F)cccc1S(=O)(=O)NC(C)(C)CN.Cl gave -19.62%.
COc1ccc2c3c1CN(S(C)(=O)=O)CC3=CC(C)(C)CO2 gave -12.9%.
Cc1nc(C2CCN(C(=O)CO)CC2)cc(N2CCOCC2)n1 gave 33.01%.
Cc1ccnc(NC(=O)C2CCN(CCCn3ccnc3)CC2)c1 gave -9.272%.
CSCC(=O)N1CCCN(c2ccncc2C)CC1 gave -37.52%.
COc1cccc(-c2nc(CNCCCn3cccn3)cs2)c1 gave -17.08%.
Cn1nnnc1SCC1(O)CCCCC1 gave -66.85%.
CN(Cc1ccc(C#N)cc1)C(=O)c1ccnc(OC2CCC2)c1 gave -72.67%.
CNc1nccc(C2CCCCN2Cc2cnn3cccnc23)n1 (configuration not stated) gave -0.9281%.